Laboratory results as given in patent US20100040611A1 (Merck Sharp & Dohme, published 2010).
Where a chain is given by its changes, count along the chain named. Results are given in words; binding and its absence hold for the method and conditions named. Some binding calls cover weakened binding; strength is not graded here. Values belong to the binder of their own block, whether it stands above or below them.

The chains behind the UniProt entries cited, without tags or fusion partners. Residues count along the entry.
UniProt Q8NBP7, residues 31-692: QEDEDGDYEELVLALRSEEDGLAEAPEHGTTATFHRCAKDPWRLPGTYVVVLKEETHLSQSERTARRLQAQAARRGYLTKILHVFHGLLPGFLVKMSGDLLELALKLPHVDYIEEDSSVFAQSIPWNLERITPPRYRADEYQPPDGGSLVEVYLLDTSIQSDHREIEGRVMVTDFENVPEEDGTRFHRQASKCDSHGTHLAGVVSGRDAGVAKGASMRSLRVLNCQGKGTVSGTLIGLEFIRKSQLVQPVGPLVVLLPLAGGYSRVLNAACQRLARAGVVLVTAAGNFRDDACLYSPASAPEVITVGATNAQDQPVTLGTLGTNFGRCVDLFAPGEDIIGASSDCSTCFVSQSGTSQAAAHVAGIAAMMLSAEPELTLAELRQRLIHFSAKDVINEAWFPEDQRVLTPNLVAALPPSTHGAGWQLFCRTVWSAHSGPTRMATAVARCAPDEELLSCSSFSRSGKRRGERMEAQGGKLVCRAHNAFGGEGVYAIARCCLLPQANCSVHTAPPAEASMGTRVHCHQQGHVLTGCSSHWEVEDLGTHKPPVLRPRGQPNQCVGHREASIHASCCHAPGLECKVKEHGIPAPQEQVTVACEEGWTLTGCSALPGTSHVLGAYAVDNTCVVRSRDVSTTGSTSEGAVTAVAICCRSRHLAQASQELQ

Molecular target: recombinant human PCSK9, V5-, His-tagged (human, UniProt Q8NBP7 31-692, limits assumed)
Assay: ELISA on immobilised V5-, His-tagged PCSK9, HRP anti-Fab detection

B1: 1CX1G08 (Fab, V domains shown)
VH: QVQLVESGGGLVQPGGSLRLSCAASGFTFSDYWVSWVRQAPGKGLEWVSFISYDGSSTYYADSVKGRFTISRDNSKNTLYLQMNSLRAEDTAVYYCARTYFEGVDVWGQGTLVTVSS
VL: DIELTQPPSVSVAPGQTARISCSGDNIGTYYVHWYQQKPGQAPVLVIYDDSNRPSGIPERFSGSNSGNTATLTISGTQAEDEADYYCGTWDNTSFNLVFGGGTKLTVLG
- binding: binds

B2: 3CX2A06 (Fab, V domains shown)
VH: QVQLVQSGAEVKKPGESLKISCKGSGYSFSNFWIAWVRQMPGKGLEWMGIIDPSDSWTRYSPSFQGQVTISADKSISTAYLQWSSLKASDTAMYYCARGDGQDFDNWGQGTLVTVSS
VL: DIQMTQSPSSLSASVGDRVTITCRASQNINSYLNWYQQKPGKAPKLLIYAASSLQSGVPSRFSGSGSGTDFTLTISSLQPEDFAVYYCLQNYDLPNTFGQGTKVEIKR
- binding: binds

B5: 3BX5C01 (Fab, V domains shown)
VH: QVQLVQSGAEVKKPGESLKISCKGSGYSFTSYGISWVRQMPGKGLEWMGMIDPSDSFTTYSPSFQGQVTISADKSISTAYLQWSSLKASDTAMYYCARGYYFTYALQPMDHWGQGTLVTVSS
VL: DIELTQPPSVSVAPGQTARISCSGDNLRDYIVHWYQQKPGQAPVLVIYDDSNRPSGIPERFSGSNSGNTATLTISGTQAEDEADYYCGFDNGGDIDVFGGGTKLTVLG
- binding: binds

Next, values leading:

- binding: binds
B3: 3CX3D02 (Fab, V domains shown)
VH: QVQLVQSGAEVKKPGESLKISCKGSGYSFTNSWIGWVRQMPGKGLEWMGIIYPSDSYTIYSPSFQGQVTISADKSISTAYLQWSSLKASDTAMYYCARGGGYYYALMDVWAQGTLVTVSS
VL: B2 VL with N28T, N30S, S31T, Y32W, V85T, N91D, Y92S, D93S, N96L

- binding: binds
B4: 3CX4B08 (Fab, V domains shown)
VH: QVQLVESGGGLVQPGGSLRLSCAASGFTFSNYTMNWVRQAPGKGLEWVSFISSSSSETYYADSVKGRFTISRDNSKNTLYLQMNSLRAEDTAVYYCARGYGDMVDLWGQGTLVTVSS
VL: DIELTQPPSVSVAPGQTARISCSGDSIPTYYVAWYQQKPGQAPVLVIYSDTDRPSGIPERFSGSNSGNTATLTISGTQAEDEADYYCQSFDNHGYHVFGGGTKLTVLG
